Laboratory results from patent publication US20130059292A1 (APTAMER SCIENCES, published 2013).
No constants are given. Whether binding was seen depends on the method and setting. Some results given as binding are weak or reduced against the parent protein; the word gives no strength. Values belong to the molecule of their own block, whether it stands above or below them.

Amino acid sequences for entries named in this document (tags omitted). A change or cut given only in a name is not applied to a line headed by its entry.
UniProt P06213: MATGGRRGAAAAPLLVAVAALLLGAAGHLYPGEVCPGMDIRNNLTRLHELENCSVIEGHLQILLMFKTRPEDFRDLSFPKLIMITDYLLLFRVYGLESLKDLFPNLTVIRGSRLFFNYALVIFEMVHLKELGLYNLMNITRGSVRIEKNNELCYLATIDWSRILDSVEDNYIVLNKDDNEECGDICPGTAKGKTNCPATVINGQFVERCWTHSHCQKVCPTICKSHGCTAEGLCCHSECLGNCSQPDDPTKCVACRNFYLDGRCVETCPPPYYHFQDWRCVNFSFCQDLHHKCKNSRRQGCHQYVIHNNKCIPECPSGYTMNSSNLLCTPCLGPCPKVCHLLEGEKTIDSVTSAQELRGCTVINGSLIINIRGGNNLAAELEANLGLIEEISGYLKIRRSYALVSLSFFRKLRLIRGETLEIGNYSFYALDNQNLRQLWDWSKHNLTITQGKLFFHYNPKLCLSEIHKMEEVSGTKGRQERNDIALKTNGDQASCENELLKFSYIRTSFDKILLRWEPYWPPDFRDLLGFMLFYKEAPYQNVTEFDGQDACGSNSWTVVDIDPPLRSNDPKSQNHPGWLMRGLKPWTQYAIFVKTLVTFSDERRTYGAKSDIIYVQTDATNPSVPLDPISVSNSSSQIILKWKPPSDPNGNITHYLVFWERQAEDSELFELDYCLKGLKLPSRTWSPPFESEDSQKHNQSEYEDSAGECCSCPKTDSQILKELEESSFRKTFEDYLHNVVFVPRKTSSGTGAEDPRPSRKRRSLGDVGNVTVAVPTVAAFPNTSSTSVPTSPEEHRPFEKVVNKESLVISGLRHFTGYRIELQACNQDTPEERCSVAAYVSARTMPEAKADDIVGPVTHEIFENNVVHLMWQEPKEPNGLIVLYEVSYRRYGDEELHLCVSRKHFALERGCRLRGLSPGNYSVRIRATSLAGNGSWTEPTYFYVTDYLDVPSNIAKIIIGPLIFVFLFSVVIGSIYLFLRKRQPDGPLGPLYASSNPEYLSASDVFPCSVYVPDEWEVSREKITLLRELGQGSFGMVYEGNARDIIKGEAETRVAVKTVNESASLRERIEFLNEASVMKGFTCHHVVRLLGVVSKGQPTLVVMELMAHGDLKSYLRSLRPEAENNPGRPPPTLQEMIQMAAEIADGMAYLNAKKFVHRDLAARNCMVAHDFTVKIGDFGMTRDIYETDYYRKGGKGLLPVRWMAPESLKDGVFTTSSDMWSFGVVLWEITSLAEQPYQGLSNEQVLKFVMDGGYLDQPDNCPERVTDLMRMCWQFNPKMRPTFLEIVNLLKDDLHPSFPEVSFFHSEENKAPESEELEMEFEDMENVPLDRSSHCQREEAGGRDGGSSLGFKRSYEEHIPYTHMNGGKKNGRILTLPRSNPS
UniProt P31751: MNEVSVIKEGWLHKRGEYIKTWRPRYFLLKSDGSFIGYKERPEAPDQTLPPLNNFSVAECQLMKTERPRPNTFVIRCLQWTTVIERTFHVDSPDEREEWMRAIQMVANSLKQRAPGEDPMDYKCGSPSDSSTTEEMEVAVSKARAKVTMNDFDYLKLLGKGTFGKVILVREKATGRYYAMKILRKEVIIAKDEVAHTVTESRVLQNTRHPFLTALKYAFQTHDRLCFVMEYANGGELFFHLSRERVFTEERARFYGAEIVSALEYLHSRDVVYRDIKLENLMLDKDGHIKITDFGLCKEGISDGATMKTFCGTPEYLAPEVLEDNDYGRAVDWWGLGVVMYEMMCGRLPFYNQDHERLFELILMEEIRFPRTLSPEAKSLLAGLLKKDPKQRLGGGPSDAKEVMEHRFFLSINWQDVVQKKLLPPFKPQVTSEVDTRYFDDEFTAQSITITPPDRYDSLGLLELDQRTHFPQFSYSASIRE
UniProt P47197: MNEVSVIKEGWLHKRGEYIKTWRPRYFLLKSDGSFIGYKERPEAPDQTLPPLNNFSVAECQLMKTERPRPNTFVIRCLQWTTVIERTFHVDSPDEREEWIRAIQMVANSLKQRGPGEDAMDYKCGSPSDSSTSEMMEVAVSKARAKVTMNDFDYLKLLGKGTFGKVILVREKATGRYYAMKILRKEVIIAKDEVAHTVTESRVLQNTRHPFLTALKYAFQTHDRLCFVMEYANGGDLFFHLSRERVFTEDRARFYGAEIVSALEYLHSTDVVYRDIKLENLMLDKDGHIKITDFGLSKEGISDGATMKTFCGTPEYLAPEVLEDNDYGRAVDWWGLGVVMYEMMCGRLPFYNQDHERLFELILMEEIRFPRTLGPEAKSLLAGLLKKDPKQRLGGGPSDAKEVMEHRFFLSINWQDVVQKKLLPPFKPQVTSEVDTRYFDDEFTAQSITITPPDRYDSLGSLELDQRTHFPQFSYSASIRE

Key:
[1] = biological target: T1, epidermal growth factor receptor (EGFR) (human, UniProt P00533 25-1210); assay: Co-AP with EGFR aptamer beads from EGF-stimulated A431 cell extract (data not shown)
T1 construct: Endogenous protein in A431 cell lysate; also called EGF receptor

[2] = biological target: human insulin receptor (IR) (human) (UniProt P06213); assay: Co-AP with IR aptamer-magnetic agarose beads from insulin-stimulated Rat-1/IR cell lysate, Western blot
AKT2 (human) = AKT2 (human) (UniProt P31751); assay: Co-AP with AKT2 aptamer-magnetic agarose beads from insulin-stimulated MCF7 cell lysate, Western blot

binding [1]: binds
Molecule: AKT2 (from UniProt P31751 1-481) (enzyme)

binding [2]: binds
Molecule: Akt2 (in Rat-1/IR cells) (from UniProt P47197 1-481) (enzyme)

binding (AKT2 (human)): binds
B1: PDK1 (enzyme, human, UniProt O15530 1-556, looked up)
chain: MARTTSQLYDAVPIQSSVVLCSCPSPSMVRTQTESSTPPGIPGGSRQGPAMDGTAAEPRPGAGSLQHAQPPPQPRKKRPEDFKFGKILGEGSFSTVVLARELATSREYAIKILEKRHIIKENKVPYVTRERDVMSRLDHPFFVKLYFTFQDDEKLYFGLSYAKNGELLKYIRKIGSFDETCTRFYTAEIVSALEYLHGKGIIHRDLKPENILLNEDMHIQITDFGTAKVLSPESKQARANSFVGTAQYVSPELLTEKSACKSSDLWALGCIIYQLVAGLPPFRAGNEYLIFQKIIKLEYDFPEKFFPKARDLVEKLLVLDATKRLGCEEMEGYGPLKAHPFFESVTWENLHQQTPPKLTAYLPAMSEDDEDCYGNYDNLLSQFGCMQVSSSSSSHSLSASDTGLPQRSGSNIEQYIHDLDSNSFELDLQFSEDEKRLLLEKQAGGNPWHQFVENNLILKMGPVDKRKGLFARRRQLLLTEGPHLYYVDPVNKVLKGEIPWSQELRPEAKNFKTFFVHTPNRTYYLMDPSGNAHKWCRKIQEVWRQRYQSHPDAAVQ
notes: also called phosphoinositide dependent kinase 1; PDPK1
